Literature values as cited in paper PMC4667193 (Scientific Reports, 2015).

System: rat primary hippocampal cell culture
Conditions: rat primary hippocampal cell cultures; cited from earlier work

CN1[C@@H]2CC[C@H]1C[C@@H](OC(=O)C(CO)c1ccccc1)C2 (stereo partly shown) [atropine]
effect on AEME-induced neurotoxicity: prevented AEME-induced neurotoxicity
